Results published in PMC12546133.
No constants are given. Whether binding was seen depends on the method and setting. In cells and extracts the contact can be indirect. Some results given as binding are weak or reduced against the parent protein; the word gives no strength.

Sequences of proteins named here, by UniProt entry; tags and fusion partners are left off.
UniProt P62898: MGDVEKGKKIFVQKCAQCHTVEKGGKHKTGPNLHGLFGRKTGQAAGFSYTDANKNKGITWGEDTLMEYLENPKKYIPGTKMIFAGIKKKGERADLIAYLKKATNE

Assays:
[1] = biological target: T1, apoptotic protease activating factor 1 (Apaf1) (rat (endogenous in H9c2)) (UniProt Q9EPV5); assay: co-IP; H9c2 cell extracts; anti-Apaf1 or anti-Cycs antibody fixed on protein A/G magnetic beads, blots for Cycs and Apaf1; cells untreated, treated with L-NAME, with siRNA against Apaf1 or Cycs, with Apaf1 overexpression, with TQ
T1 sequence: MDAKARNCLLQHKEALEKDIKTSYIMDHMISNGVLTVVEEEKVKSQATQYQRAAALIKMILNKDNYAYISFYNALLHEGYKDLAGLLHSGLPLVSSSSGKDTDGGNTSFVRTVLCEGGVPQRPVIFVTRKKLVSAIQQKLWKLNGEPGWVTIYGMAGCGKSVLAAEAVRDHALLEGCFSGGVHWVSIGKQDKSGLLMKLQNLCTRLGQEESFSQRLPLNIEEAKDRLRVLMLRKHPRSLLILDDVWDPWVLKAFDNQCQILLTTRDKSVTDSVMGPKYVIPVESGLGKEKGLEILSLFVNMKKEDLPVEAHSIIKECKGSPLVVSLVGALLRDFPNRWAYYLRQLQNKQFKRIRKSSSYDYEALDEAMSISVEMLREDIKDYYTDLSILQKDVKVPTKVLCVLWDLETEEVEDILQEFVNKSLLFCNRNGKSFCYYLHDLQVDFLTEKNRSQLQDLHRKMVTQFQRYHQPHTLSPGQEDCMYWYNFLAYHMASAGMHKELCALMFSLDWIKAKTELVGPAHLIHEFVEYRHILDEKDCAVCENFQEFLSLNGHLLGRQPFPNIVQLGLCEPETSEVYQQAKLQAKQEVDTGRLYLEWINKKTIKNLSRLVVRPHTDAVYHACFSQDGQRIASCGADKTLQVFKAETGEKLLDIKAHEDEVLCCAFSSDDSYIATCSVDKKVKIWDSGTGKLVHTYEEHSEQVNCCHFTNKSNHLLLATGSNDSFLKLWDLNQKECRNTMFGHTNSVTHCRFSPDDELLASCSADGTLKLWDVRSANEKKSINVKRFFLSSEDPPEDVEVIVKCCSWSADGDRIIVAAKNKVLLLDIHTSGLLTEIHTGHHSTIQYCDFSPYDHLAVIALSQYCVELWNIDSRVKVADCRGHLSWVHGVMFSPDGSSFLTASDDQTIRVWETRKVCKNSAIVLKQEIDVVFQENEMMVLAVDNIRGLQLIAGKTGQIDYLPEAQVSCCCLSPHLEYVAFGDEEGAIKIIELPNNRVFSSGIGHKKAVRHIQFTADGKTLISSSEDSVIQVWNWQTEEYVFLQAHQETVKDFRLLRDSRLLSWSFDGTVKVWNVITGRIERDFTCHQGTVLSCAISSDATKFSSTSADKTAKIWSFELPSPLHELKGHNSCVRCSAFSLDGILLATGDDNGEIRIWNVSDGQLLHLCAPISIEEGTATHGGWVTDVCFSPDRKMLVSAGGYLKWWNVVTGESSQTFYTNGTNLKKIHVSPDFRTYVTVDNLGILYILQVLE

[2] = biological target: T2, overexpressed rat Apaf1 (OE-Apaf1) (rat) (UniProt Q9EPV5); assay: as above
T2 sequence: T1 sequence

binding [1]: binds
binding [2]: binds
Substance: cytochrome c (Cycs) (from UniProt P62898 1-105)
